The source of these data is paper doi:10.1101/2023.12.05.570199.

Chains of the proteins cited; added tags and fusions are not shown. Residues count along the entry.
UniProt P0A4G0, residues 26-652: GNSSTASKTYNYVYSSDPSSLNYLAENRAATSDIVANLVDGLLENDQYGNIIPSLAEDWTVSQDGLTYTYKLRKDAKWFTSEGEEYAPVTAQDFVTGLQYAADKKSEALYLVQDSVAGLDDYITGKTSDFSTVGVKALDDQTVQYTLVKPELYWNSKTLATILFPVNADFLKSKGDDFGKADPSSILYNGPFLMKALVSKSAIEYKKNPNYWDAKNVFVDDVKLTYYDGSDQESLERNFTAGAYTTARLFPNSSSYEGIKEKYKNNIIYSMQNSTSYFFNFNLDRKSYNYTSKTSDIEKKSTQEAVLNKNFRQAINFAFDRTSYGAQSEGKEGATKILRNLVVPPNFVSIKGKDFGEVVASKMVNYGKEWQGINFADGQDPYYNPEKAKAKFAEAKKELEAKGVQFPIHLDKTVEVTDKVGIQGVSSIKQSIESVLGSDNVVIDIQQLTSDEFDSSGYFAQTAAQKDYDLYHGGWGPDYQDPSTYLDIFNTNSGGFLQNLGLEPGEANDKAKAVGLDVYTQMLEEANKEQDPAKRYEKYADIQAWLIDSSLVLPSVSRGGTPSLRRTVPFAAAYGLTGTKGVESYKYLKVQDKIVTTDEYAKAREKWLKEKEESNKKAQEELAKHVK

The target of the assay is AliB (residues 26-652) (Streptococcus pneumoniae) (UniProt P0A4G0). The assay can be described thus: crystal structure.

No constants are given. Whether binding was seen depends on the method and setting. Some results given as binding are weak or reduced against the parent protein; the word gives no strength.

For the molecule AIQSEKARKHN [Peptide 2 (…)], the binding result was “binds”.
